Test results as given in paper PMC11641854.

By UniProt entry, the sequences of proteins in these tests, tags left out. Where a name states a change or a piece, a line headed by the entry shows the natural chain unless it says otherwise.
UniProt Q9M8T0: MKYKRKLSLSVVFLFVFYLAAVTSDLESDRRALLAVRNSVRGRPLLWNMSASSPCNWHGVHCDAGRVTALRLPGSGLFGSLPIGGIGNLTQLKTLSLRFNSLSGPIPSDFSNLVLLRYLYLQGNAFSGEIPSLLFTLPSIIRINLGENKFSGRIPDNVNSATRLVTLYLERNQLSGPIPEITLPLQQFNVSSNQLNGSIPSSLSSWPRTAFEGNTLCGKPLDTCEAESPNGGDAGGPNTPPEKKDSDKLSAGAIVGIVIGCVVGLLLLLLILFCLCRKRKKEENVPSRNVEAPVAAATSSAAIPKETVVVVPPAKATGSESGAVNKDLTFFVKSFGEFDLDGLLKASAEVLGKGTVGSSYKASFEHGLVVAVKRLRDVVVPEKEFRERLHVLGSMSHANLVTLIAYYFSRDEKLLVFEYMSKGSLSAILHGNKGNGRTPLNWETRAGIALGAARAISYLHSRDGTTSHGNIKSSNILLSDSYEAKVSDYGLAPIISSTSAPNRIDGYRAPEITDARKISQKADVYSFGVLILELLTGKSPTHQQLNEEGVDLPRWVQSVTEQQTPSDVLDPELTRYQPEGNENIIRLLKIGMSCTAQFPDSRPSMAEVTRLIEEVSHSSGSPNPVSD
UniProt Q9M2D8: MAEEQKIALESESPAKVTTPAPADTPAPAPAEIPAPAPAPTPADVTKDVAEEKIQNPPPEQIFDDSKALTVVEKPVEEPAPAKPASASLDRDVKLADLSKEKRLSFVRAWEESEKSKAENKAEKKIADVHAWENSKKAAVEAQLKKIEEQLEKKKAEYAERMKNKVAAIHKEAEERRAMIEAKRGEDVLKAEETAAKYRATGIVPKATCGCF
UniProt Q9FIJ0: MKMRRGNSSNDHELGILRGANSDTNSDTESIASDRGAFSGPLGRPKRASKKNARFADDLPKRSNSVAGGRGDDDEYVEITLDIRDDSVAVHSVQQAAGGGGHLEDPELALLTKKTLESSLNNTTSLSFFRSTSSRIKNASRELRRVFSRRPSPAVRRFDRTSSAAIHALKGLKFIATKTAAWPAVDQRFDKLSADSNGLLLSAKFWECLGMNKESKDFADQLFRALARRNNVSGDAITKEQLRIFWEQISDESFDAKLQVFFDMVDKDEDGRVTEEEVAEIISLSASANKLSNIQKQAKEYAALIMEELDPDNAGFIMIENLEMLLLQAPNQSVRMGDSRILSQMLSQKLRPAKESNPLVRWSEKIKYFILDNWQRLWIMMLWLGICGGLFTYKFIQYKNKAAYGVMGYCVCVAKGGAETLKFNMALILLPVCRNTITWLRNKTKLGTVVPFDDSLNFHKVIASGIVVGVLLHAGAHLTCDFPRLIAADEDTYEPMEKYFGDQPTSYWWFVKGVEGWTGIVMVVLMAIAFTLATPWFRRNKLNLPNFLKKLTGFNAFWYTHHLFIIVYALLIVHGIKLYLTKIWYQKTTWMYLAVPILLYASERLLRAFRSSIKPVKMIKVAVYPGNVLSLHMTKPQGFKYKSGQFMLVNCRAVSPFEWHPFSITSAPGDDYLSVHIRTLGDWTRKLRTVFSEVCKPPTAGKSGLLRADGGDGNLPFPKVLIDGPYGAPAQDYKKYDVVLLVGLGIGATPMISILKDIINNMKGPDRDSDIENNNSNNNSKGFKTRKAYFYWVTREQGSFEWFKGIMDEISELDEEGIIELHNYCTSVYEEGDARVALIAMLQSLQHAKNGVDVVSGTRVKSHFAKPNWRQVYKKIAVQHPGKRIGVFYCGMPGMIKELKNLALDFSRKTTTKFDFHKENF

Each molecule was assayed against … SENSING 2 fused to GFP (FLS2-GFP) (Arabidopsis thaliana) (UniProt Q9FL28) (assay: affinity purification with mass spectrometry; IP of FLS2-GFP from the Arabidopsis pFLS2:FLS2-GFP line with anti-GFP magnetic beads, LC-MS/MS of the precipitate).

Molecule | binding
QIAN SHOU KINASE 1 (QSK1), endogenous (from UniProt Q9M8T0) | binds
AUTOINHIBITED Ca2+-ATPASE 10 (ACA10), endogenous (protein, UniProt Q9SZR1 1-1069) MSGQFNNSPRGEDKDVEAGTSSFTEYEDSPFDIASTKNAPVERLRRWRQAALVLNASRRFRYTLDLKREEDKKQMLRKMRAHAQAIRAAHLFKAAASRVTGIASPLPTPGGGDFGIGQEQIVSISRDQNIGALQELGGVRGLSDLLKTNLEKGIHGDDDDILKRKSAFGSNTYPQKKGRSFWRFVWEASQDLTLIILIVAAVASLALGIKTEGIEKGWYDGISIAFAVLLVIVVTATSDYRQSLQFQNLNEEKRNIRLEVTRDGRRVEISIYDIVVGDVIPLNIGDQVPADGVLVAGHSLAVDESSMTGESKIVQKNSTKHPFLMSGCKVADGNGTMLVTGVGVNTEWGLLMASVSEDNGGETPLQVRLNGVATFIGIVGLTVAGVVLFVLVVRYFTGHTKNEQGGPQFIGGKTKFEHVLDDLVEIFTVAVTIVVVAVPEGLPLAVTLTLAYSMRKMMADKALVRRLSACETMGSATTICSDKTGTLTLNEMTVVECYAGLQKMDSPDSSSKLPSAFTSILVEGIAHNTTGSVFRSESGEIQVSGSPTERAILNWAIKLGMDFDALKSESSAVQFFPFNSEKKRGGVAVKSPDSSVHIHWKGAAEIVLGSCTHYMDESESFVDMSEDKMGGLKDAIDDMAARSLRCVAIAFRTFEADKIPTDEEQLSRWELPEDDLILLAIVGIKDPCRPGVKNSVLLCQQAGVKVRMVTGDNIQTAKAIALECGILASDSDASEPNLIEGKVFRSYSEEERDRICEEISVMGRSSPNDKLLLVQSLKRRGHVVAVTGDGTNDAPALHEADIGLAMGIQGTEVAKEKSDIIILDDNFESVVKVVRWGRSVYANIQKFIQFQLTVNVAALVINVVAAISAGEVPLTAVQLLWVNLIMDTLGALALATEPPTDHLMDRAPVGRREPLITNIMWRNLFIQAMYQVTVLLILNFRGISILHLKSKPNAERVKNTVIFNAFVICQVFNEFNARKPDEINIFRGVLRNHLFVGIISITIVLQVVIVEFLGTFASTTKLDWEMWLVCIGIGSISWPLAVIGKLIPVPETPVSQYFRINRWRRNSSG | binds
IMPAIRED OOMYCETE SUSCEPTIBILITY 1 (IOS1), endogenous (protein, UniProt Q9C8I6 24-894) QDQSGFISLDCGSPRETSFREKTTNITYISDANFINTGVGGSIKQGYRTQFQQQTWNLRSFPQGIRNCYTLNLTIGDEYLIRANFLHGGYDDKPSTQFELYLGPNLWSTVTTTNETEASIFEMIHILTTDRLQICLVKTGNATPFISALELRKLMNTTYLTRQGSLQTFIRADVGATVNQGYRYGIDVFDRVWTPYNFGNWSQISTNQSVNINNDYQPPEIAMVTASVPTDPDAAMNISLVGVERTVQFYVFMHFAEIQELKSNDTREFNIMYNNKHIYGPFRPLNFTTSSVFTPTEVVADANGQYIFSLQRTGNSTLPPLLNAMEIYSVNLLPQQETDRKEVDAMMNIKSAYGVNKIDWEGDPCVPLDYKWSGVNCTYVDNETPKIISLDLSTSGLTGEILEFISDLTSLEVLDLSNNSLTGSVPEFLANMETLKLINLSGNELNGSIPATLLDKERRGSITLSIEGNTGLCSSTSCATTKKKKKNTVIAPVAASLVSVFLIGAGIVTFLILKRKKRTKLGLNPNSGTGTTPLHSRSHHGFEPPVIAKNRKLTYIDVVKITNNFERVLGRGGFGVVYYGVLNNEPVAVKMLTESTALGYKQFKAEVELLLRVHHKDLTCLVGYCEEGDKMSLIYEFMANGDLKEHLSGKRGPSILTWEGRLRIAAESAQGLEYLHNGCKPQIVHRDIKTTNILLNEKFQAKLADFGLSRSFPLGTETHVSTIVAGTPGYLDPEYYRTNWLTEKSDVFSFGVVLLELVTNQPVIDMKREKSHIAEWVGLMLSRGDINSIVDPKLQGDFDPNTIWKVVETAMTCLNPSSSRRPTMTQVVMDLKECLNMEMARNMGSRMTDSTNDSSIELSMNFTTELNPGAR | binds

More lines, now with the values ahead:

binding | Molecule
binds | REMORIN 1.2 (REM1.2), endogenous (from UniProt Q9M2D8)
binds | RESPIRATORY BURST OXIDASE HOMOLOG D (RBOHD), endogenous (from UniProt Q9FIJ0 1-921) (enzyme)
binds | … INDUCED REACTION 4 (HIR4), endogenous (protein, UniProt Q9FHM7 1-292) MGNTYCILGGCIEQASVGVVERWGRFEHIAEPGCHFFNPLAGQWLAGVLSTRIKSLDVKIETKTKDNVFVQLVCSIQYRVVKASADDAFYELQNPKEQIQAYVFDVVRALVPMMTLDALFEQKGEVAKSVLEELEKVMGAYGYSIEHILMVDIIPDPSVRKAMNEINAAQRLQLASVYKGEAEKILQVKRAEAEAEAKYLGGVGVARQRQAITDGLRENILNFSDKVEGTSAKEVMDLIMITQYFDTIRDLGNSSKNTTVFLPHGPGHVRDISDQIRNGMMEAAASTQVNDV
binds | SYNTAXIN OF PLANTS 71 (SYP71), endogenous (protein, UniProt Q9SF29 1-266) MTVIDILTRVDSICKKYDKYDVDKQREANISGDDAFARLYGAFETQIETALEKAELVTKEKNRAAAVAMNAEIRRTKARLSEEVPKLQRLAVKRVKGLTTEELAARNDLVLALPARIEAIPDGTAGGPKSTSAWTPSSTTSRPDIKFDSDGRFDDDYFQESNESSQFRQEYEMRKIKQEQGLDMISEGLDALKNMASDMNEELDRQVPLMDEIDTKVDRATSDLKNTNVRLKDTVNQLRSSRNFCIDIVLLCIVLGIAAYLYNVLK

These are yes or no findings as the source states them, for the method shown. In cells and extracts the contact can be indirect. Here binding means that the protein was enriched with, or labelled near, the bait; the list need not be complete. Tags and fused reporters may be left off the sequences shown.
